B1: RSSR↓E: human FGE variant, Tyr70 substituted with Ser (protein)
chain: ADEFSQEAGTGAGAGSLAGSCGCGTPQRPGAHGSSAAAHRSSREANAPGPVPGERQLAHSKMVPIPAGVFTMGTDDPQIKQDGEAPARRVTIDAFYMDAYEVSNTEFEKFVNSTGYLTEAEKFGDSFVFEGMLSEQVKTNIQQAVAAAPWWLPVKGANWRHPEGPDSTILHRPDHPVLHVSWNDAVAYCTWAGKRLPTEAEWEYSCRGGLHNRLFPWGNKLQPKGQHYANIWQGEFPVTNTGEDGFQGTAPVDAFPPNGYGLYNIVGNAWEWTSDWWTVHHSVEETLNPKGPPSGKDRVKKGGSYMCHRSYCYRYRCAARSQNTPDSSASNLGFRCAADRLPTMDSGRGSHHHHHHH
modifications: FGE fl variant Y70S
notes: human FGE variant, Tyr70 substituted with Ser
B2: RYRR↓E: human FGE variant, Ser71 at position P2 mutated to arginine (protein)
chain: ADEFSQEAGTGAGAGSLAGSCGCGTPQRPGAHGSSAAAHRYRREANAPGPVPGERQLAHSKMVPIPAGVFTMGTDDPQIKQDGEAPARRVTIDAFYMDAYEVSNTEFEKFVNSTGYLTEAEKFGDSFVFEGMLSEQVKTNIQQAVAAAPWWLPVKGANWRHPEGPDSTILHRPDHPVLHVSWNDAVAYCTWAGKRLPTEAEWEYSCRGGLHNRLFPWGNKLQPKGQHYANIWQGEFPVTNTGEDGFQGTAPVDAFPPNGYGLYNIVGNAWEWTSDWWTVHHSVEETLNPKGPPSGKDRVKKGGSYMCHRSYCYRYRCAARSQNTPDSSASNLGFRCAADRLPTMDSGRGSHHHHHHH
modifications: FGE variant S71R
notes: human FGE variant, Ser71 at position P2 mutated to arginine
B3: RARR↓E: human FGE variant with Y70A and S71R substitutions (protein)
chain: ADEFSQEAGTGAGAGSLAGSCGCGTPQRPGAHGSSAAAHRARREANAPGPVPGERQLAHSKMVPIPAGVFTMGTDDPQIKQDGEAPARRVTIDAFYMDAYEVSNTEFEKFVNSTGYLTEAEKFGDSFVFEGMLSEQVKTNIQQAVAAAPWWLPVKGANWRHPEGPDSTILHRPDHPVLHVSWNDAVAYCTWAGKRLPTEAEWEYSCRGGLHNRLFPWGNKLQPKGQHYANIWQGEFPVTNTGEDGFQGTAPVDAFPPNGYGLYNIVGNAWEWTSDWWTVHHSVEETLNPKGPPSGKDRVKKGGSYMCHRSYCYRYRCAARSQNTPDSSASNLGFRCAADRLPTMDSGRGSHHHHHHH
modifications: FGE variant Y70A / S71R
notes: human FGE variant with Y70A and S71R substitutions

Test system: HT1080 Tet-On cells
Test: Proteolytic processing of secreted FGE and cleavage motif variants in HT1080 Tet-On cells (western blot)
Assay type: cell-based, human
Conditions: transient expression, western blot

Row | Molecule | cleavage efficiency (fl-FGE/Δ72-FGE ratio in the medium) compared to FGE-wt
1 | B1 | minor effect
2 | B2 | virtually all of the secreted FGE was processed
3 | B3 | virtually all of the secreted FGE was processed

— patent US20150141617A1, “PRODUCTION AND PURIFICATION OF ACTIVE EUKARYOTIC FORMYLGLYCINEGENERATING ENZYME (FGE) VARIANTS” (Universität Bielefeld, priority 2013, published 2015)
